Experimental data: publication PMC7305236
No constants are given. Whether binding was seen depends on the method and setting. Binding seen in cells or lysates may run through a third protein. Some binding calls cover weakened binding; strength is not graded here.

Chains of the proteins cited; added tags and fusions are not shown.
UniProt P41146: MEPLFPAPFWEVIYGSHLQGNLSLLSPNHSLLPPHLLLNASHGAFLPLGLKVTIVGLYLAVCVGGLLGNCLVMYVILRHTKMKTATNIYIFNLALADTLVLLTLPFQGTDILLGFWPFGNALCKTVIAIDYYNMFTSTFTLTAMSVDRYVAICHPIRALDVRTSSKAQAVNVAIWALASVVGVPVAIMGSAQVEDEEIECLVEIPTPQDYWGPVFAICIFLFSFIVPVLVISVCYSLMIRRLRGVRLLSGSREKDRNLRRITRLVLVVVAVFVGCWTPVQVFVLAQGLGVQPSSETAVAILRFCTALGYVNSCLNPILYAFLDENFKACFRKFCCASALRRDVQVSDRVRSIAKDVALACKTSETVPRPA
UniProt P41143: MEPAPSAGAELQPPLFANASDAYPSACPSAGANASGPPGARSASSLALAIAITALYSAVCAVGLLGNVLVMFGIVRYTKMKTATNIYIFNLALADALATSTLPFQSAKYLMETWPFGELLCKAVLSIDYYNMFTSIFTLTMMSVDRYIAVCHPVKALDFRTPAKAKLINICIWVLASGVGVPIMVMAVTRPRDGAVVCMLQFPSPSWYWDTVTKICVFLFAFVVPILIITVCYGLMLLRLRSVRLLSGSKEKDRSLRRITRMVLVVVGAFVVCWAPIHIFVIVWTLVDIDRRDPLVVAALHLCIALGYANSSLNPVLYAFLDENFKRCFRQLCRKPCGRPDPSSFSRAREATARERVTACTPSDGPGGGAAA
UniProt P35372: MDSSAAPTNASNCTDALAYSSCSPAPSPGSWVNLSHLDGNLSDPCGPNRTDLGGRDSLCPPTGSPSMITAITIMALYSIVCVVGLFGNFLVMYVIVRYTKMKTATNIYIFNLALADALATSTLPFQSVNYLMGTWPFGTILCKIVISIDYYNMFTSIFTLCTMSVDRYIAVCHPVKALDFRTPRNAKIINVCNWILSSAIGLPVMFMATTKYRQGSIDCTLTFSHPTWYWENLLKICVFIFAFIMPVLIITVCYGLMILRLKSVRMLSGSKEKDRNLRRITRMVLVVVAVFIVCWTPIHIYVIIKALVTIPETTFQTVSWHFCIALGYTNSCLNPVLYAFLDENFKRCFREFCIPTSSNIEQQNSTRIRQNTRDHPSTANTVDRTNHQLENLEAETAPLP
UniProt P49407: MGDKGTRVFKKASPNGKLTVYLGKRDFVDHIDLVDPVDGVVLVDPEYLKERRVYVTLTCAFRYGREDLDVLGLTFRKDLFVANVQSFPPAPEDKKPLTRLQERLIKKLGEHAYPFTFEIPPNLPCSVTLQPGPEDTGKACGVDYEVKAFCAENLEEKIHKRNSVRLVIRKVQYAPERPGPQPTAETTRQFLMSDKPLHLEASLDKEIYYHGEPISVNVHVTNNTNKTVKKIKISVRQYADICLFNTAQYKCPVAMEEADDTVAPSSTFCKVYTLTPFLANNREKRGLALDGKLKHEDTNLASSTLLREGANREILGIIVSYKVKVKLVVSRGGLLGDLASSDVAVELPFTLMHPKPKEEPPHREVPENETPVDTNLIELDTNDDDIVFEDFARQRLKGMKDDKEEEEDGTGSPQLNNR

Columns and labels:
Assay in all cases: split reporter
[1] = target: nociceptin receptor (NOP) C-terminally tagged with SmBiT (UniProt P41146)
[2] = target: delta opioid receptor (DOR) C-terminally tagged with SmBiT (UniProt P41143)
[3] = target: mu opioid receptor (MOR) C-terminally tagged with SmBiT (UniProt P35372)

Measured: binding

human β-arrestin-1 (arrestin-2) N-terminally fused to LgBiT (from UniProt P49407 1-418)
binds: all assays above
